“And” between values parts separate entries of the source, which are not always exact repeats. Identical values can stand only once. The whole screen tested about 1,900 compounds, of which about 15 (0.8%) were called active.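 Rule for the calls: active = every replicate shows at least 50% inhibition; inconclusive = mean inhibition at least 50% but some replicate below; inactive = the rest.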 Some of the results follow. Non-standard residues stand in square brackets, D forms with d. Residues, ends and D or L forms follow the SMILES beside them. ξ: configuration not given here. ξV = CC(C)C(N)C(=O)O
Each compound was assayed against DNA repair protein RAD52 homolog (Homo sapiens) (UniProt P43351) (assay: inhibition of RAD52-mediated strand annealing – biochemical, FRET, single point, primary screen (AID 651660;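 note: 0% = median of neutral control wells and 100% = median of positive control wells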)). Settings: Recombinant RAD52 ssDNA annealing, FRET fluorescence, 30 min; at 18.7 µM; active compounds read high.

Sequences of proteins named here, by UniProt entry; tags and fusion partners are left off. A change or cut given only in a name is not applied to a line headed by its entry.
UniProt P43351: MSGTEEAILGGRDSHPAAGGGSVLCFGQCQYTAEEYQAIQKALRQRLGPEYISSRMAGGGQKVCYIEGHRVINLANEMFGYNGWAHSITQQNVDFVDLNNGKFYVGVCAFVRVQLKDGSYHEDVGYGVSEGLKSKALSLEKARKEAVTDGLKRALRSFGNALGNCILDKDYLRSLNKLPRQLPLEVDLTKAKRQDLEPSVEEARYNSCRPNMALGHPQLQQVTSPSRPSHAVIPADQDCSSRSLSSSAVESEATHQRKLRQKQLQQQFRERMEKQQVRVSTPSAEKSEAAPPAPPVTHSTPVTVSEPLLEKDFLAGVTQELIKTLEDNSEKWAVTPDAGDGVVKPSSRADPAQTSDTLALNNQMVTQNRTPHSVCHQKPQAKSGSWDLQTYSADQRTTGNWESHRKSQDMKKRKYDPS

Row | Compound | inhibition
1 | COc1cc(/C=C/C(=O)CC(=O)/C=C/c2ccc(O)c(OC)c2)ccc1O | inactive: -278%
2 | CC(=O)OCC[N+](C)(C)C | inactive: 2.07% and inactive: -3.86%
3 | CC[n+]1ccc2cc(OC)c(OC)cc2c1Cc1ccc(OC)c(OC)c1 | inactive: 0.192%
4 | O=C(/C=C/c1ccc2c(c1)OCO2)c1ccccn1 | inactive: -21.4%
5 | Cn1c(=O)c(C(=O)NCCO)c(O)c2ccccc21 | inactive: 1.86%
6 | CN1C(=O)C(O)(CC(=O)/C=C/C=C/c2ccccc2)c2ccccc21 (stereo not given) | inactive: -13.6%
7 | Cn1cc(C2N3CC4(C)CN2CC(C)(C3)C4=O)c2ccccc21 (stereo not given) | inactive: -2.47%
8 | OCCN(CCO)c1ccc2ccccc2c1 | inactive: -0.71%
9 | CC(C)(C)C(=O)NC(=S)NNC(=O)c1ccncc1 | inactive: -11.2%
10 | CN(C)[C@@H]1C(=O)C(C(N)=O)=C(O)[C@@]2(O)C(=O)C3=C(O)c4c(O)ccc(Cl)c4[C@@H](O)[C@H]3C[C@@H]12 | inactive: -21.9%
11 | CCOC(=O)c1ccc(N2C(=O)C(CC(N)=O)N(CCc3ccc(OC)c(OC)c3)C2=S)cc1 (stereo not given) | inactive: 3.53%
12 | COc1ccc2[nH]cc(CCNC(=O)C3CCCNC3=O)c2c1 (stereo not given) | inactive: 0.0365%
13 | CC1COc2c(N3CCN(C)CC3)c(F)cc3c(=O)c(C(=O)O)cn1c23 (stereo not given) | inactive: -9.72%
14 | CCN(CC)C(=O)c1sc(NC(=O)c2c(OC)cccc2OC)c(C#N)c1C | inactive: -7.02%
15 | O=C(O)/C=C/c1cnc[nH]1 | inactive: 7.74%
16 | NCc1ccccc1COc1ccccc1 | inactive: -4.4%
17 | COCCCNc1nc2c([nH]1)c(=O)[nH]c(=O)n2C | inactive: -1.14%
18 | CC(C)(C)NCC(O)COc1cccc2c1C[C@H](O)[C@H](O)C2 (stereo not given in full) | inactive: -8.68%
19 | O=C1CN(O)C=C2N=c3ccccc3=C2N1c1ccc([N+](=O)[O-])cc1 | inactive: -6.26%
20 | COCCc1ccc(OCC(O)CNC(C)C)cc1 (stereo not given) | inactive: -1.06%
21 | CC(C)Cc1ccc(C(C)C(=O)O)cc1 (stereo not given) | inactive: -18.4%
22 | CC(=O)NC(C(=O)NCC(N)=O)C(C)C (stereo not given) (Ac-[ξV]-Gly-NH2) | inactive: 2.28%
23 | O=S(=O)(CCc1nc2ccccc2[nH]1)c1ccc(Cl)cc1 | inactive: -5.81%
24 | C[N+](C)(C)CCOP(=O)([O-])OC[C@H](O)CO | inactive: 6.57%
25 | CC(C)Oc1cccc(C(=O)N2CCCC2)c1 | inactive: -2.43%

Row | Compound | inhibition
26 | CN(C)C(=O)CCCCCCCCC(=O)N(C)C | inactive: -13.3%
27 | CC(=O)NC(Cc1c[nH]c2ccccc12)C(=O)N/N=C/c1ccccc1 (stereo not given) | inactive: -9.28%
28 | COc1ccc(-c2nc(NC(C)=O)sc2-c2ccc(OC)cc2)cc1 | inactive: 7.84%
29 | Cc1nc(NCc2ccco2)c(C#N)c2c1COC(C)(C)C2 | inactive: -36.8%
30 | C=C(C)C(=O)Nc1ccc(NC(C)C)cc1 | inactive: -20.1%
31 | O=C1[C@@H]2CSCN2C(=O)CN1Cc1ccc(F)cc1 | inactive: 1.73%
32 | COc1cc(C(=O)Nc2ccc(N(C)C)cc2)c([N+](=O)[O-])cc1OC | inactive: 4.77%
33 | CC(C)(C)NCC(O)c1cc(O)cc(O)c1 (stereo not given) | inactive: -0.924%
34 | COc1ccc(Cc2nc(-c3ccc(Br)cc3)no2)cc1 | inactive: -3.69%
35 | CCc1oc2ccccc2c1C(=O)c1cc(Br)c(O)c(Br)c1 | inactive: -13.4%
36 | CC(C)NC(=O)c1ccc(C(C)C)cc1 | inactive: -5.18%
37 | O=C1C2C3C=CC(C4CC34)C2C(=O)N1/N=C/c1ccc(-c2ccc([N+](=O)[O-])cc2)o1 (stereo not given) | inactive: -40.7%
38 | c1ccc(Nc2cccc3c(Nc4ccccc4)cccc23)cc1 | active: 51.9%
39 | COC(=O)C1=C(C)NC(C)=C(C(=O)OCCN(C)Cc2ccccc2)C1c1cccc([N+](=O)[O-])c1 (stereo not given) | inactive: 12.7%
40 | COc1ccc(-c2nnc(-c3cc4c(ccc5ccccc54)oc3=O)o2)cc1 | inactive: -4.25%
41 | CC(=O)SC1CC2=CC(=O)CCC2(C)C2CCC3(C)C(CCC34CCC(=O)O4)C12 (stereo not given) | inactive: -15.3%
42 | CNc1c2c(nn1C)CCCC2 | inactive: 5.41%
43 | CC(C)CN1CC(C(=O)O)CC1=O (stereo not given) | inactive: -3.12%
44 | CC(C)=CCC(C)(C)/C=N/NC(N)=O | inactive: -3.93%
45 | COc1c2ccoc2nc2c(OC)cccc12 | inactive: 10.6%
46 | NCCCC(N)(C(=O)O)C(F)F (stereo not given) | inactive: -2.52%
47 | COc1cc(/C=C(\C#N)C(=O)N2CCc3ccccc32)ccc1O | inactive: -109%
48 | Cc1ccccc1C(OCCN(C)C)c1ccccc1 (stereo not given) | inactive: -5.6%
49 | Cc1ccc(NCCC(=O)c2ccccc2)cc1Cl | inactive: -5.14%
50 | CCSC(SCC)[C@H](O)[C@@H](O)[C@H](O)[C@H](O)CO | inactive: 2.44%

— PubChem BioAssay AID651660 (Broad Institute, 2012)
